Data set [1] concerns the target T1, FPR2 (formyl peptide receptor 2) (Homo sapiens) (UniProt P25090).
T1 sequence: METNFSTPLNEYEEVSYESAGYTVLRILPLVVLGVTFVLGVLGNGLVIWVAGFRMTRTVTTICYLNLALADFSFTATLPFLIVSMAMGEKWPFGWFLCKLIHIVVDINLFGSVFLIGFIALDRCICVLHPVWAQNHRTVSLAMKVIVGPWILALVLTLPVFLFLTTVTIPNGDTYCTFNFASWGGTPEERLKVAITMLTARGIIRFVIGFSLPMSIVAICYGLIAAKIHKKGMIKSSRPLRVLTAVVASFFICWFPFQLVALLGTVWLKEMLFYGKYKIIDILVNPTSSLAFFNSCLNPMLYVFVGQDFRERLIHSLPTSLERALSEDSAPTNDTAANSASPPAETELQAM
Briefly: activity in cells. Conditions: agonist; inhibition of forskolin-mediated cAMP production (CRE-luciferase), 1 uM aptamer, 293 FPR2-GFP cells; LL37 5 uM gives 46%; protein on the cell surface; single-stranded DNA. Background: Changes in cAMP serve as a functional read-out for many G protein-coupled receptors.

In data set [2] the target is T1, FPR2 (formyl peptide receptor 2) (Homo sapiens). Nature of the data set: binding assay. Conditions: cell binding by qPCR Ct, HaCaT-FPR2-GFP, 20 pmol, 30 min 37 C; among the highest-affinity aptamers; colocalizes with FPR2-GFP; protein on the cell surface; label: AlexaFluor 700 (colocalization assay only); single-stranded DNA. A general note: Real-time PCR tracks product formation cycle by cycle.

For part of these data: At least one result comes from cells or an extract, where the contact may be indirect. Protein sequences can lack the tags named with them.

For “GCGGATGAAGACTGGTGTTGTGGCGCTTCGGGCCTGTCCCTTTATATCCGTAGATTGAGCCCTAAATACGAGCAAC [ApFP4.5b]”, the “functional effect of the aptamer” value in data set [1] is recorded as “active”. For the same sequence, in data set [2], the binding result is given as “binds”.
Taken in the same sequence, the figures for “GCGGATGAAGACTGGTGTGGGGATCAGGAACTCTGAAATGGCAGTCTATGTTTCAATGGCCCTAAATACGAGCAAC [ApFP3.8a]” were “active” and “binds”.
Taken in the same sequence, the figures for “GCGGATGAAGACTGGTGTGGGCGGGGGTCTTAGGCTGTACGGGGCTGTTCAGGTGCTTGCCCTAAATACGAGCAAC [ApFP3.5a]” were “active” and “binds”.

The record behind these values is patent US20220372484A1.
